Measured values published in US20100004240A1, “Indole Compounds” (Glaxo Group Limited, priority 2006, published 2010).
Where a name gives a salt, the structure may show the parent alone. Some of these results come from one statement about several compounds together.

Molecular target: T1, human EP1 receptor (Homo sapiens, UniProt P34995)
T1 construct: expressed in transfected cells; host or cells: CHO-K1 cells
T1 sequence (P34995 1-402): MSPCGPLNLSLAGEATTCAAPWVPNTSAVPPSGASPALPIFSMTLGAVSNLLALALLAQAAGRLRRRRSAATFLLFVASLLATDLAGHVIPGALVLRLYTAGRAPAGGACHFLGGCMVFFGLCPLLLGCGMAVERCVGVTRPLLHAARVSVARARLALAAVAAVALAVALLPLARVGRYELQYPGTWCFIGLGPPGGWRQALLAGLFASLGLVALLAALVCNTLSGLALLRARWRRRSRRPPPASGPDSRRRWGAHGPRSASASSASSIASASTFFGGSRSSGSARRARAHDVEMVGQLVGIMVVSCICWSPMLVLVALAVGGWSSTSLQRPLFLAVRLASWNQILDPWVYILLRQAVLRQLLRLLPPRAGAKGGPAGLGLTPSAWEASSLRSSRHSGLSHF
Assay: human EP1 calcium mobilisation assay
Type: cell-based
Details: human EP1, CHO-K1 cells
Experimental: Briefly, the antagonist properties of compounds are assessed by their ability to inhibit the mobilisation of intracellular calcium ([Ca^2+]i) in response to activation of EP1 or EP3 receptors by the natural agonist hormone prostaglandin E2 (PGE2). Increasing concentrations of antagonist reduce the amount of calcium that a given concentration of PGE2 can mobilise. The net effect is to displace the PGE2 concentration-effect curve to higher concentrations of PGE2. The amount of calcium produced is assessed using a calcium-sensitive fluorescent dye such as Fluo-4, AM and a suitable instrument such as a Fluorimetric Imaging Plate Reader (FLIPR). Increasing amounts of [Ca^2+]i produced by receptor activation increase the amount of fluorescence produced by the dye and give rise to an increasing signal. The signal may be detected using the FLIPR instrument and the data generated may be analysed with suitable curve-fitting software.
The human EP1 or EP3 calcium mobilisation assay (hereafter referred to as ‘the calcium assay’) utilises Chinese hamster ovary-K1 (CHO-K1) cells into which a stable (pClN; BioTechniques 20 (1996): 102-110) vector containing either EP1 or EP3 cDNA has previously been transfected. Cells are cultured in suitable flasks containing culture medium such as DMEM:F-12 supplemented with 10% v/v foetal calf serum, 2 mM L-glutamine, 0.25 mg/ml geneticin, 100 μM flurbiprofen and 10 μg/ml puromycin.
For assay, cells are harvested using a proprietary reagent that dislodges cells such as Versene. Cells are re-suspended in a suitable quantity of fresh culture media for introduction into a 384-well plate. Following incubation for 24 hours at 37° C. the culture media is replaced with a medium containing Fluo-4 and the detergent pluronic acid, and a further incubation takes place. Concentrations of compounds are then added to the plate in order to construct concentration-effect curves. This may be performed on the FLIPR in order to assess the agonist properties of the compounds. […]
The data so generated may be analysed by means of a computerised curve-fitting routine. […]

activity in the calcium mobilisation assay | Structure (SMILES)
inactive | CC(C)Cn1cc(-c2nc(-c3nc4ccc(CN5CCCCC5)cc4[nH]3)co2)c2cc(Cl)ccc21 [Example 12, 2-{2-[5-Chloro-1-(2-methylpropyl)-1H-indol-3-yl]-1,3-oxazol-4-yl}-5-(1-piperidinylmethyl)-1H-benzimidazole dihydrochloride]
inactive | CC(C)Cn1cc(-c2nc(-c3nc4ccc(CN5CCCC5)cc4[nH]3)co2)c2cc(Cl)ccc21 [Example 13, 2-{2-[5-Chloro-1-(2-methylpropyl)-1H-indol-3-yl]-1,3-oxazol-4-yl}-5-(1-pyrrolidinylmethyl)-1H-benzimidazole dihydrochloride]
inactive | CCNCc1ccc2nc(-c3coc(-c4cn(CC(C)C)c5ccc(Cl)cc45)n3)[nH]c2c1 [Example 14, [(2-{2-[5-Chloro-1-(2-methylpropyl)-1H-indol-3-yl]-1,3-oxazol-4-yl}-1H-benzimidazol-5-yl)methyl]ethylamine dihydrochloride]
